In patent US9253983B2, “Triazole compound and use thereof” (KUREHA CORPORATION, priority 2011, dated 2016):
Some of these results come from one statement about several compounds together. At least one structure is not confirmed: it was looked up by name or label, or the drawing left a doubt.

What was measured:
Format in all cases: in vivo
Botrytis cinerea = assay: Controlling effect on cucumber gray mold by foliage spray treatment (Tests 1 and 2); settings: foliage spray 50 mg/L, 1,000 L/ha, 4 days after inoculation
Description: The cucumber plants had been grown in square plastic pots (6 cm×6 cm). After the suspension was then left to dry, paper discs (8 mm in diameter) impregnated with a spore suspension of Botrytis cinerea w ere placed on the leaves, and the plants were kept at 20° C. in a high humidity environment. Four days after inoculation, the lesion degree of the cucumber gray mold was examined in accordance with the criteria shown in Table 1, and the protective values were calculated by the following equation: Protective value (%)=(1−Average lesion degree in sprayed plot/Average lesion degree in unsprayed plot)×100.
The cucumber plants had been grown in square plastic pots (6 cm×6 cm). After the leaves were air-dried, paper discs (8 mm in diameter) impregnated with a spore suspension of cucumber graymold-causing microorganisms were placed on the leaves, and the plants were kept at 20° C. in a high humidity environment. 4 days after the inoculation, the lesion degree of the cucumber gray mold was examined, and the protective values were calculated as were in Experiment Example 1.

Puccinia recondita = assay: Controlling effect on wheat brown rust (leaf rust) by foliage spray treatment (Tests 1 and 2); settings: foliage spray 3.1 mg/L, 1,000 L/ha, 11 days after inoculation
Description: The wheat plants had been grown in square plastic pots (6 cm×6 cm). The suspensions were left to dry, and inoculated with spores of Puccinia recondita (adjusted at 200 spores per field of vision, Gramin S was added at 60 ppm) by spraying, and kept at 25° C. in a high humidity environment for 48 hours. After that, the plants were kept in a greenhouse. 11 days after the inoculation, the lesion degree of the wheat leaf rust was examined in accordance with the criteria shown in Table 4, and the protective values were calculated by the following equation. Protective value (%)=(1−Average lesion degree in sprayed plot/Average lesion degree in unsprayed plot)×100
The wheat plants had been grown in square plastic pots (6 cm×6 cm). The leaves were air-dried, and inoculated with spores of Puccinia recondita (adjusted at 200 spores per field of vision, Gramin S was added at 60 ppm) by spraying, and kept at 25° C. in a high humidity environment for 48 hours. After that, the plants were kept in a greenhouse. 11 days after the inoculation, the lesion degree of the wheat leaf rust was examined, and the protective values were calculated as were in Experiment Example 2.

[1] = test system: Erysiphe graminis f. sp tritici; assay: Controlling effect on wheat powdery mildew by foliage spray treatment (Tests 1 and 2); settings: foliage spray 50 mg/L, 1,000 L/ha, 8 days after inoculation
Excerpt: The suspension was sprayed at 1,000 L/ha to leaves of wheat plants (cultivar: NORIN No. 61) in their second leaf stage. The wheat plants had been grown in square plastic pots (6 cm×6 cm). After the suspension was left to dry, the plants were inoculated with Erysiphe graminis f. sp tritici taken from wheat plants infected with wheat powdery mildew, by sprinkling. 8 days and 11 days after the inoculation, the lesion degree of the wheat powdery mildew was examined in accordance with the criteria shown in Table 4. The protective values were found in the same way as in Experiment Example 2.
The suspension was sprayed at 1,000 L/ha to leaves of wheat plants (cultivar: NORIN No. 61) in their second leaf stage. The wheat plants had been grown in square plastic pots (6 cm×6 cm). After the leaves were air-dried, they were inoculated with Erysiphe graminis f. sp tritici taken from wheat plants infected with wheat powdery mildew, by sprinkling. 8 days after the inoculation, the lesion degree of the wheat powdery mildew was examined. The protective values were calculated as were in Experiment Example 1.

Measured: Protective value

CC1(CCl)CCC(Cc2ccc(Cl)cc2)C1(O)Cn1cncn1 (single isomer, unassigned) [Compound (1-1b), (1,2-cis, 1,5-cis)-5-(4-chlorobenzyl)-2-chloromethyl-2-methyl-1-(1H-1,2,4-triazole-1-ylmethyl)cyclopentanol]
≥ 90%: all assays above

CC1(CCl)CCC(Cc2ccc(F)cc2)C1(O)Cn1cncn1 (single isomer, unassigned) [Compound (1-2b), (1,2-cis, 1,5-cis)-5-(4-fluorobenzyl)-2-chloromethyl-2-methyl-1-(1H-1,2,4-triazole-1-ylmethyl)cyclopentanol]
≥ 90%: all assays above
